# Test results as given in publication PMC4392834.
# No constants are given. Whether binding was seen depends on the method and setting. In cells and extracts the contact can be indirect. Binding can be weak; no strength is given.
# Target: HoxE (VC fusion) (Nematostella)
# Assay: split reporter; Venus BiFC: VC-Hox and VN-TF co-expressed in live Drosophila embryos with the corresponding Hox-Gal4 driver (abdA-Gal4 for AbdA); epidermis, stage 10-12, quantified at stage 10; affected if equal or lower than 50% of wild type, stronger if 120% or more
row,Binder,binding
1,"VN-Kn (protein, UniProt P56721 1-575) MEWGRKLYPSAVSGPRSAGGLMFGLPPTAAVDMNQPRGPMTSLKEEPLGSRWAMQPVVDQSNLGIGRAHFEKQPPSNLRKSNFFHFVIALYDRAGQPIEIERTAFIGFIEKDSESDATKTNNGIQYRLQLLYANGARQEQDIFVRLIDSVTKQAIIYEGQDKNPEMCRVLLTHEVMCSRCCDKKSCGNRNETPSDPVIIDRFFLKFFLKCNQNCLKNAGNPRDMRRFQVVISTQVAVDGPLLAISDNMFVHNNSKHGRRAKRLDTTEGTGNTSLSISGHPLAPDSTYDGLYPPLPVATPCIKAISPSEGWTTGGATVIIVGDNFFDGLQVVFGTMLVWSELITSHAIRVQTPPRHIPGVVEVTLSYKSKQFCKGSPGRFVYVSALNEPTIDYGFQRLQKLIPRHPGDPEKLQKEIILKRAADLVEALYSMPRSPGGSTGFNSYAGQLAVSVQDGSGQWTEDDYQRAQSSSVSPRGGYCSSASTPHSSGGSYGATAASAAVAATANGYAPAPNMGTLSSSPGSVFNSTSMSAVSSTWHQAFVQHHHAATAHPHHHYPHPHQPWHNPAVSAATAAAV",no binding
2,"VN-Eyes absent (protein, UniProt Q05201 1-766) MVTLMPYNYAAPRCGLIDKMIEPKVKRPKTDHTDTHERNRLCNLSQQQQQQQPQQQQTHQQQQQQQQQSHQQSHSSTVLASNGPSSAGAGMGVGVGGGGGSGGGVGGGVGQCSPLGLPPQSQPLQPTIGSLASLSGHYSNGNANPNVNSSSCSLATASSFAQSAGSSFSTYQQAGGTSGGVSGEDGVVGGATVMSHWTHDGTGSSAAVKSESRSPGQVHASLDNGSVAGSNLYGCSSASNPLDGGAVAVNSSAVAAAAAAVYDGKHDYYYYNSMQQYTPPPFYSGYGTPYAAATAARQAKMEPGAAAAAAAYLTPSYAASGNNNSQLYSSPYAGYNNFGQQDYGGYYNEQYGNYYSPANYSPYAVSSPSSSASHGHGFHVAASSNLSESPTDTHSTTPVHQTTHSPHSPLPISPSTGSGIGPLGNVSAAAAAAALNSSGGSSVGTAGSGGVATSKTTPTGKTGRARGRRHQQPSPTRSTASDTGNSEAVKPPERVFVWDLDETLIIFHTLLSGSYANRYTKDHSSLMTIAFRMEEMVFNMADTHFFFNEIEECDQVHIDDVSSDDNGQDLSAYNFATDGFHTNTPPGAPPNLCLPTGVRGGVDWMRKLAFRYRKIKDIYNSYRGNVGTLLGPGKREAWLQIRSEIEVATDNWATLALKCLSMISQRENCVNVLVTSTQLAPALAKVLLFGLGGIFNIENIYSAHKIGHETCYERIVTRFGRKSTYVVIGDGNEEETAAKAMNFPFWRISAHSDIRALYTALDMGFL",no binding
3,"VN-Bagpipe (protein, UniProt P22809 1-382) MLNMESAGVSAAMAGLSKSLTTPFSINDILTRSNPETRRMSSVDSEPEPEKLKPSSDRERSISKSPPLCCRDLGLYKLTQPKEIQPSARQPSNYLQYYAAAMDNNNHHHQATGTSNSSAADYMQRKLAYFGSTLAAPLDMRRCTSNDSDCDSPPPLSSSPSESPLSHDGSGLSRKKRSRAAFSHAQVFELERRFAQQRYLSGPERSEMAKSLRLTETQVKIWFQNRRYKTKRKQIQQHEAALLGASKRVPVQVLVREDGSTTYAHMAAPGAGHGLDPALINIYRHQLQLAYGGLPLPQMQMPFPYFYPQHKVPQPIPPPTQSSSFVTASSASSSPVPIPIPGAVRPQRTPCPSPNGQMMSVESGAESVHSAAEDVDENVEID",no binding
4,"VN-Teashirt (protein, UniProt P22265 1-954) MLHEALMLEIYRQALNAGALPTARPRSTESANSSERCPSHDSNSSEHGGGAGSGGVGHRLDAAALSTGVMPGEGPTTLHSSFPAVPQSLPSQPPSMEAYLHMVAAAAQQYGFPLAAAAAAGAGPRLPLPLANEAAAPFKLPPQASPTASSNNSEALDFRTNLYGRAESAEPPASEGEEEEFDDGANNPLDLSVGTRKRGHESEPQLGHIQVKKMFKSDSPPANSVASPSASQLLPGVNPYLAAVAAANIFRAGQFPDWNSKNDLVVDPLEKMSDIVKGGASGMGTKEKMHSSKATTPQAASQPPKSPVQPTPNQNSESGGGSGGGAAGSGAVTKARHNIWQSHWQNKGVASSVFRCVWCKQSFPTLEALTTHMKDSKHCGVNVPPFGNLPSNNPQPQHHHPTPPPPPQNHNLRKHSSGSASNHSPSANVKNAFQYRGDPPTPLPRKLVRGQNVWLGKGVEQAMQILKCMRCGESFRSLGEMTKHMQETQHYTNILSQEQSISIKSGNANANSDAKESHNSLSSEESRTLSAVLTCKVCDKAFNSLGDLSNHMAKNNHYAEPLLQSAGARKRPAPKKREKSLPVRKLLEMKGGSGTTQEDHSNEKTSVQGKPGLGPGGGDKNDAALFAERMRQYITGVKAPEEIAKVAAAQLLAKNKSPELVEQKNGGSAKAAGASSVLSAIEQMFTTSFDTPPRHASLPASSPSNSSTKNTSPVASSILKRLGIDETVDYNKPLIDTNDPYYQHYRYTSSERSGSECSAEARPRLDAPTPEKQQQGGGHDEESSKPAIKQEREAESKPVKMEIKSEFVDEPNEAEETSKMEAAVVNGSATNNNNNIVERSSPKTPSSAASPQTRLLPPRSPAESQRSVTPKSPASSHKSYDGSSEGTKKFPSDSLNALSSMFDSLGSSGAGANSRAKLAAAAAAGGSESPENLTAGGNSLAALRQFCVKKEKTA",binds
5,"VN-Empty spiracles (protein, UniProt P18488 1-494) MTKMIPPVPTAAAAVMMPTPKQKIGFSIESIVGNDVSTAGGNSTPDLSGPQSPPPGERNVPGSPPQTPPATLTLIPGSPPHHLMAPPAHGLPYPHPHAQQQHLQAPHPHPHLSPAQQHVLHQHLLMQQQHPGTPKSHQDIQELLQRLHHNAAMASGLSPLQTRLSPETEQPQMAVSLKRERSPAPPAMEQAENPAQRIQPPHTPPKSVSPQSSQPSSSPTLLISSPHATPPQQQQQQPPPNYPKPAMMHPGGAGPMMMPGMPPAGLVRPFPMGPGGPPMPQGQPGLPDIKALPPYINAPPELPPQHNPHLIAAAQFQMAAALQAGHVLGPAAAAAAAAGLPPHAAQFMPNPGMARDSYQLYPWLLSRHGRIFPHRFPGSFLVPPFRKPKRIRTAFSPSQLLKLEHAFESNQYVVGAERKALAQNLNLSETQVKVWFQNRRTKHKRMQQEDEKGGEGGSQRNMHNGSGDEDDDELIDMEMDECPSDEEHELDASH",no binding
6,"VN-Biniou (protein, UniProt Q9VS05 1-676) MIKSEEASDRSVMTMDQLGGYYHDPRAHPPFSHPHAHSHPHQHTHTGHPYRAGNLLTGGNYQAMGGGESPTELIDEKPNIGYMELKHYMDATPTATPVSAAQHYSLSALHSMGTPPASSSPIPPYGVLMTAHSAGSASPQSNSKTPTDLPQDLQYASSSTSTAKVQPLQVQLQPLNHQYASTIKYCSNNTILSANDYQLLTSQEQAGQQQPQQLPAQQLQHSPGGGYMSRISTSPSQVISNAHGMPVLNYSSSSSSPAKSLNGSESSPPSQNHLENKVSGSAVVGTGGSSQQDAPSTPDTTKKSGTRRPEKPALSYINMIGHAIKESPTGKLTLSEIYAYLQKSYEFFRGPYVGWKNSVRHNLSLNECFKKLPKGMGVGKPGKGNYWTIDENSAHLFEDEGSLRRRPRGYRSKIKVKPYAGHANGYYASGYGDAGMDNGNYYASPAFASYDYSAAGATGVSPAGGQGFADPWNAHAAHSGSSSVGVGMGVGPLPQYTNISCLAAGGNVNGSATTPPLAHSALGMAPSASSSSSPLGAAATLQSDYAPTASLVAAGYSYATSAGSLDNGLRSISLQQLPGLSSIQHAQAQAQAQAHHHHHQHHASHPSHSHQGHGSMHQNHGTSSTTPPPSQSGGSHGIDHSPIDRKPAYLPPISPPPMMVALNGGGGYYEGLKYAN",binds
